Some results were stated once for a whole list of compounds, not compound by compound.
Experiments:
Format in all cases: in vivo
Settings in all cases: application rate 320 grams per hectare, scored visually after 3 to 4 weeks
Echinochloa crus galli [1] = assay: Pre-emergence herbicidal action against harmful plants
Lolium multiflorum = assay: as above
Setaria viridis = assay: as above
Alopecurus myosuroides = assay: as above
Veronica persica [2] = assay: as above
Veronica persica [3] = assay: Post-emergence herbicidal action against harmful plants
Echinochloa crus galli [4] = assay: as above

| SMILES | activity against Echinochloa crus galli (Echinochloa crus galli [1]) | activity against Lolium multiflorum (Lolium multiflorum) | activity against Setaria viridis (Setaria viridis) | activity against Alopecurus myosuroides (Alopecurus myosuroides) | activity against Veronica persica (Veronica persica [2]) | activity against Veronica persica (Veronica persica [3]) | activity against Echinochloa crus galli (Echinochloa crus galli [4]) |
| --- | --- | --- | --- | --- | --- | --- | --- |
| Cc1cc(CNC(=O)C2(C)CC(c3cc(Cl)cc(Cl)c3)=NO2)no1 (stereo not drawn) [Example 1.421] | at least 90% | at least 90% | at least 90% |  |  |  |  |
| CCOP(=O)(CNC(=O)C1(C)CC(c2cc(Cl)cc(Cl)c2)=NO1)OCC (stereo not drawn) [Example 6.433] |  | at least 90% |  | at least 90% | at least 90% |  |  |
| CCn1cc(CNC(=O)C2(C)CC(c3cc(Cl)cc(Cl)c3)=NO2)c(Cl)n1 (stereo not drawn) [Example 1.344, N-[(3-chloro-1-ethyl-1H-pyrazol-4-yl)methyl]-3-(3,5-dichlorophenyl)-5-methyl-4,5-dihydro-1,2-oxazole-5-carboxamide] |  |  |  |  |  | at least 90% | at least 90% |
| CNC(=O)CC(C)NC(=O)C1(C)CC(c2cc(Cl)cc(Cl)c2)=NO1 (stereo not drawn) [Example 6.321] | at least 90% | at least 90% | at least 90% |  |  |  |  |
| CC1(C(=O)NCCCN2CCCC2=O)CC(c2cc(Cl)cc(Cl)c2)=NO1 (stereo not drawn) [Example 6.669] | at least 90% | at least 90% | at least 90% |  |  |  |  |
| O=C(NCC(F)(F)F)C1(C(F)(F)F)CC(c2cc(Cl)cc(Cl)c2)=NO1 (stereo not drawn) [Example 8.359] |  | at least 90% |  | at least 90% | at least 90% |  |  |
| CC1(C(=O)NCCC(=O)O)CC(c2cc(Cl)cc(OC(F)(F)F)c2)=NO1 (stereo not drawn) [Example 6.541] |  |  |  |  |  | at least 90% | at least 90% |
| CC(C)n1cc(CNC(=O)C2(C)CC(c3ccccc3)=NO2)cn1 (stereo not drawn) [Example 1.270] |  | at least 90% |  | at least 90% | at least 90% |  |  |
| CC(=O)n1cc(CNC(=O)C2(C)CC(c3cc(F)cc(F)c3)=NO2)cn1 (stereo not drawn) [Example 1.140] |  | at least 90% |  | at least 90% | at least 90% |  |  |
| CC(C)NC(=O)C1(C)CC(c2cc(C(F)(F)F)cc(C(F)(F)F)c2)=NO1 (stereo not drawn) [Example 6.163] | at least 90% | at least 90% | at least 90% |  |  |  |  |
| CCOC(=O)CC(C)NC(=O)C1(C)CC(c2cc(C)cc(C)c2)=NO1 (stereo not drawn) [Example 6.288] | at least 90% | at least 90% | at least 90% |  |  |  |  |
| COC(=O)C(C)(C)NC(=O)C1(C)CC(c2cc(Cl)cc(Cl)c2)=NO1 (stereo not drawn) [Example 6.122] |  | at least 90% |  | at least 90% | at least 90% |  |  |
| COCC#CC(C)(C)NC(=O)C1(C)CC(c2cc(Cl)cc(Cl)c2)=NO1 (stereo not drawn) [Example 6.115] | at least 90% | at least 90% | at least 90% |  |  |  |  |
| COCCCNC(=O)C1(C)CC(c2cc(Cl)cc(Cl)c2)=NO1 (stereo not drawn) [Example 6.687] | at least 90% | at least 90% | at least 90% |  |  |  |  |
| CC1(C(=O)NC2CC2)CC(c2cc(F)cc(F)c2)=NO1 (stereo not drawn) [Example 6.058] | at least 90% | at least 90% | at least 90% |  |  |  |  |
| CC1(C(=O)NCC2CCCO2)CC(c2cc(Cl)cc(Cl)c2)=NO1 (mixture of isomers) [Example 6.470] | at least 90% | at least 90% | at least 90% |  |  |  |  |
| CC1(CCCNC(=O)C2(C)CC(c3cc(Cl)cc(Cl)c3)=NO2)OCCO1 (stereo not drawn) [Example 6.666] | at least 90% | at least 90% | at least 90% |  |  |  |  |
| CC1(C)CC(CNC(=O)C2(C)CC(c3cc(Cl)cc(Cl)c3)=NO2)=NO1 (stereo not drawn) [Example 6.357] |  | at least 90% |  | at least 90% | at least 90% |  |  |
| CCn1cc(CNC(=O)C2(C)CC(c3cc(F)ccc3F)=NO2)c(C)n1 (stereo not drawn) [Example 1.204] | at least 90% | at least 90% | at least 90% |  |  |  |  |
| CC1(C(=O)NCC2CC2)CC(c2cc(Cl)cc(Cl)c2)=NO1 (stereo not drawn) [Example 6.431] | at least 90% | at least 90% | at least 90% |  |  |  |  |
| CCn1cc(CNC(=O)C2(C)CC(c3ccc(F)c(F)c3)=NO2)c(C)n1 (stereo not drawn) [Example 1.175] | at least 90% | at least 90% | at least 90% |  |  |  |  |
| CC(CO)NC(=O)C1(C)CC(c2cc(Cl)cc(Cl)c2)=NO1 (stereo not drawn) [Example 6.305] |  |  |  |  |  | at least 90% | at least 90% |
| CCn1cc(CNC(=O)C2(C)CC(c3cc(Br)cc(C(F)(F)F)c3)=NO2)c(C)n1 (stereo not drawn) [Example 1.189] | at least 90% | at least 90% | at least 90% |  |  |  |  |
| Cc1cc(F)cc(C2=NOC(C)(C(=O)NC(C)C)C2)c1 (stereo not drawn) [Example 6.202] |  | at least 90% |  | at least 90% | at least 90% |  |  |
| CCOC(CCNC(=O)C1(C)CC(c2cc(Cl)cc(Cl)c2)=NO1)OCC (stereo not drawn) [Example 6.556] |  |  |  |  |  | at least 90% | at least 90% |
| COC(=O)CCNC(=O)C1(C)CC(c2cc(F)cc(Br)c2)=NO1 (stereo not drawn) [Example 6.608] |  |  |  |  |  | at least 90% | at least 90% |
| CCn1cc(CNC(=O)C2(C)CC(c3ccccc3)=NO2)c(Cl)n1 (stereo not drawn) [Example 1.338] |  |  |  |  |  | at least 90% | at least 90% |
| Cn1nc(CNC(=O)C2(C)CC(c3cc(Cl)cc(Cl)c3)=NO2)n(C)c1=O (stereo not drawn) [Example 1.130] | at least 90% | at least 90% | at least 90% |  |  |  |  |
| CCn1cc(CNC(=O)C2(C#N)CC(c3cc(F)cc(F)c3)=NO2)c(C)n1 (stereo not drawn) [Example 4.074, 5-cyano-3-(3,5-difluorophenyl)-N-[(1-ethyl-3-methyl-1H-pyrazol-4-yl)methyl]-4,5-dihydro-1,2-oxazole-5-carboxamide] | at least 90% | at least 90% | at least 90% |  |  |  |  |
| CC1(C(=O)NCC(F)(F)F)CC(c2cccc(OC(F)(F)F)c2)=NO1 (stereo not drawn) [Example 6.372] |  | at least 90% |  | at least 90% | at least 90% |  |  |

Reference: patent US9078442B2, “Herbicidally and fungicidally active 3-phenylisoxazoline-5-carboxamides and 3-phenylisoxazoline-5-thioamides” (BAYER INTELLECTUAL PROPERTY GMBH, priority 2011, dated 2015)
